From PubChem BioAssay AID248 (DTP/NCI, 2004)
The list shows only some results of the screen, not a fair sample: it covers a few groups of compounds. Other doses and runs of a compound may be missing. T/C gives the treated animals as a percentage of the vehicle group. Some doses have a count of surviving animals in place of a T/C: the source holds a T/C of zero for them, seemingly a mark for toxic or unscored doses. Some doses without a T/C left all or most animals alive at the check, yet need not have been tolerated: the source hardly ever lists a survival T/C far under the control, and the zero likely stands for such cases as well. Counts of survivors are from the toxicity check (mostly the fifth day) where no day follows; animals may have died later. Schedule codes are those of the source, read here as Q, the interval in days (D) or hours (H), X, the number of doses. Where survival is the endpoint, the PubChem record calls one and a half times the control and up active, and a quarter to a half above the control has no call in these data; cut-offs in other NCI protocols can differ. Counts like (3×) say how often a value occurs here. Some T/C values are followed by the survivors on the day toxicity was checked, most often the fifth; where neither a count nor a note follows, no animal had died by that day. Some doses were run more than once; the values are given in rising order.

Test system: L1210 leukemia ip in BDF1 mice, survival T/C
Experiment: NCI In Vivo Anticancer Drug Screen. Data for tumor model L1210 Leukemia (intraperitoneal) in B6D2F1 (BDF1) mice
Conditions: T/C endpoint: mean survival time, higher T/C = longer survival
[1] = dose: 400.0 mg/kg/injection, schedule: Q01DX015 (ip), vehicle: saline
[2] = dose: 600.0 mg/kg/injection, schedule: Q01DX015 (ip), vehicle: saline

For `COC1OC(CNCCCl)C2OC(C)(C)OC12` (stereo unspecified), the T/C (dose: 100.0 mg/kg/injection, schedule: Q01DX015 (ip), vehicle: water) was 96 and 100 % of control, the T/C (dose: 128.0 mg/kg/injection, schedule: Q01DX001 (ip), vehicle: saline) was 105 % of control and the T/C (dose: 128.0 mg/kg/injection, schedule: Q01DX001 (oral), vehicle: saline) was 96 % of control. For the same compound, the T/C (dose: 128.0 mg/kg/injection, schedule: Q01DX001 (sc), vehicle: saline) was 109 % of control, the T/C (dose: 128.0 mg/kg/injection, schedule: Q01DX005 (ip), vehicle: saline) was 97 % of control and the T/C (dose: 128.0 mg/kg/injection, schedule: Q01DX006 (iv), vehicle: saline) was 106 % of control. The T/C (dose: 128.0 mg/kg/injection, schedule: Q01DX009 (ip), vehicle: saline) was 89 % of control, the T/C (dose: 128.0 mg/kg/injection, schedule: Q01DX009 (oral), vehicle: saline) was 96 % of control and the T/C (dose: 128.0 mg/kg/injection, schedule: Q01DX009 (sc), vehicle: saline) was 98 % of control. The T/C (dose: 128.0 mg/kg/injection, schedule: Q03HX008 (ip), vehicle: saline) was 104 % of control, the T/C (dose: 128.0 mg/kg/injection, schedule: Q03HX016 (ip), vehicle: saline) was 93 % of control and the T/C (dose: 128.0 mg/kg/injection, schedule: Q04DX003 (ip), vehicle: saline) was 92 % of control. For the same compound, the T/C (dose: 128.0 mg/kg/injection, schedule: Q08DX002 (ip), vehicle: saline) was 88 % of control, the T/C (dose: 200.0 mg/kg/injection, schedule: Q01DX005 (ip), vehicle: saline) was 100 and 107 % of control [5 of 6 alive] and the T/C (dose: 200.0 mg/kg/injection, schedule: Q01DX009 (ip), vehicle: water) was 103 % of control. The T/C (dose: 200.0 mg/kg/injection, schedule: Q01DX015 (ip), vehicle: clinical formulation) was 94 and 102 % of control, the T/C (dose: 200.0 mg/kg/injection, schedule: Q01DX015 (ip), vehicle: saline, evaluated on day 30) was 93, 94, 102, 104, 109, 113 % of control and the survivor count (dose: 200.0 mg/kg/injection, schedule: Q01DX015 (ip), vehicle: saline) was 6 of 6. For the same compound, the T/C (dose: 200.0 mg/kg/injection, schedule: Q01DX015 (ip), vehicle: saline, run until all animals had died) was 152 and 155 % of control, the T/C (dose: 200.0 mg/kg/injection, schedule: Q01DX015 (ip), vehicle: water) was 94 % of control (2×) and the T/C (dose: 256.0 mg/kg/injection, schedule: Q01DX001 (ip), vehicle: saline) was 95 % of control. The T/C (dose: 256.0 mg/kg/injection, schedule: Q01DX001 (oral), vehicle: saline) was 94 % of control, the T/C (dose: 256.0 mg/kg/injection, schedule: Q01DX001 (sc), vehicle: saline) was 102 % of control and the T/C (dose: 256.0 mg/kg/injection, schedule: Q01DX005 (ip), vehicle: saline) was 102 % of control. For the same compound, the survivor count (dose: 256.0 mg/kg/injection, schedule: Q01DX006 (iv), vehicle: saline) was 3 of 10, the T/C (dose: 256.0 mg/kg/injection, schedule: Q01DX009 (ip), vehicle: saline) was 100 % of control and the T/C (dose: 256.0 mg/kg/injection, schedule: Q01DX009 (oral), vehicle: saline) was 104 % of control. For the same compound, the T/C (dose: 256.0 mg/kg/injection, schedule: Q01DX009 (sc), vehicle: saline) was 102 % of control, the T/C (dose: 256.0 mg/kg/injection, schedule: Q04DX003 (ip), vehicle: saline) was 95 % of control and the T/C (dose: 256.0 mg/kg/injection, schedule: Q08DX002 (ip), vehicle: saline) was 98 % of control. For the same compound, the T/C (dose: 300.0 mg/kg/injection, schedule: Q01DX005 (ip), vehicle: saline) was 98 [5 of 6 alive] and 105 % of control, the T/C (dose: 300.0 mg/kg/injection, schedule: Q01DX015 (ip), vehicle: clinical formulation) was 105 and 109 % of control and the T/C (dose: 300.0 mg/kg/injection, schedule: Q01DX015 (ip), vehicle: saline, evaluated on day 30) was 115, 121, 122 % of control. For the same compound, the survivor count (dose: 300.0 mg/kg/injection, schedule: Q01DX015 (ip), vehicle: saline) was 5 of 6, the T/C (dose: 300.0 mg/kg/injection, schedule: Q01DX015 (ip), vehicle: saline, run until all animals had died) was 170, 171, 180 % of control and the T/C (dose: 300.0 mg/kg/injection, schedule: Q01DX015 (ip), vehicle: water) was 115 [5 of 6 alive] and 120 % of control. The T/C (dose: 400.0 mg/kg/injection, schedule: Q01DX005 (ip), vehicle: saline) was 105 and 110 % of control, the T/C (dose: 400.0 mg/kg/injection, schedule: Q01DX009 (ip), vehicle: water) was 86 % of control and the T/C [1] was 182 % of control. The survivor count [1] was 0 of 6, the T/C (dose: 512.0 mg/kg/injection, schedule: Q01DX001 (ip), vehicle: saline) was 103 % of control and the T/C (dose: 512.0 mg/kg/injection, schedule: Q01DX001 (oral), vehicle: saline) was 101 % of control. The T/C (dose: 512.0 mg/kg/injection, schedule: Q01DX001 (sc), vehicle: saline) was 101 % of control, the T/C (dose: 512.0 mg/kg/injection, schedule: Q01DX005 (ip), vehicle: saline) was 102 % of control [9 of 10 alive] and the T/C (dose: 512.0 mg/kg/injection, schedule: Q01DX009 (oral), vehicle: saline) was 98 % of control. For the same compound, the T/C (dose: 512.0 mg/kg/injection, schedule: Q04DX003 (ip), vehicle: saline) was 97 % of control, the T/C (dose: 512.0 mg/kg/injection, schedule: Q08DX002 (ip), vehicle: saline) was 98 % of control and the survivor count (dose: 600.0 mg/kg/injection, schedule: Q01DX009 (ip), vehicle: water) was 7 of 10. For the same compound, the T/C [2] was 139 % of control, the survivor count [2] was 0 of 6 and the survivor count (dose: 800.0 mg/kg/injection, schedule: Q01DX009 (ip), vehicle: water) was 0 of 10. The T/C (dose: 1024.0 mg/kg/injection, schedule: Q01DX001 (ip), vehicle: saline) was 101 % of control [8 of 10 alive], the T/C (dose: 1024.0 mg/kg/injection, schedule: Q01DX001 (oral), vehicle: saline) was 95 % of control and the T/C (dose: 1024.0 mg/kg/injection, schedule: Q01DX001 (sc), vehicle: saline) was 101 % of control. For the same compound, the survivor count (dose: 1024.0 mg/kg/injection, schedule: Q01DX009 (oral), vehicle: saline) was 6 of 10 and the survivor count (dose: 1024.0 mg/kg/injection, schedule: Q08DX002 (ip), vehicle: saline) was 5 of 10.
